Results reported in PubChem BioAssay AID493014 (National Center for Advancing Translational Sciences (NCATS), 2011).
The whole screen tested about 340,000 compounds, of which about 170 (0.05%) were called active. Inconclusive means that the source gave no clear call. Such entries were picked first, then a sample of the others. The call rests on the fitted dose curve; in most records, active means well fitted inhibition curve with a large enough effect in the signal ratio, with a control signal flat (not every such curve was filed as active); inconclusive means small, poorly fitted or top-dose-only effect, or effect the other way, or a change in a side signal; inactive means flat fitted curve, though single readings scatter; the % refers to the signal ratio. A potency beside an inconclusive call is a rough fit, not a confirmed value.
Potency means the concentration at half of the fitted maximal effect.

Assay: qHTS Assay to Find Inhibitors of Chronic Active B-Cell Receptor Signaling;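 on activity change, negative = inhibition: plate controls were basal doxycycline-induced cells for no effect and cells given 10 µM MG132 for full effect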
Conditions: ABC-DLBCL IkBa-CBG/CBR reporter, luminescence ratio (green luciferase fused to IkBa over red control in TMD8 lymphoma cells), 4 h; activity change, negative = inhibition: at 46.1 µM (top of the series)
Outline: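 TMD8 human ABC-DLBCL cells with doxycycline-inducible IκBα–green luciferase fusion and unfused red luciferase, in 0.5% FBS medium; compounds up to 46 uM, 4 h at 37C. Green/red luminescence ratio, filter-overlap corrected, fitted to concentration-response curves.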
In the case of `Cc1nc(N2CCN(c3ccccc3)CC2)nc2c1C(=O)CC(C)C2` (stereo not given), the activity change, negative = inhibition is reported as inconclusive: 1.89%.
With `CC(=O)c1cccc(NC(=O)c2cc(-c3ccco3)nc3ccccc23)c1` the activity change, negative = inhibition was “inactive”.
For `COc1ccc(S(=O)(=O)N2CCOC2CNC(=O)C(=O)NCc2ccccn2)cc1C` (stereo not given), the activity change, negative = inhibition was inconclusive: -4.54%.
With `Cc1cc(N/N=C/c2ccccc2O)nc(-c2ccccc2O)n1` the activity change, negative = inhibition was inconclusive: 25.9%.
For `CCC1=Nc2cc(C(=O)NCC3CCCO3)ccc2Sc2ccc(Cl)cc21` (stereo not given), the activity change, negative = inhibition was inconclusive: -27.3%.
For `CCCCCCc1cc2cc(C(=O)Nc3ccc(OC)cc3)c(=O)oc2cc1O`, the Potency was inconclusive: 20.6 µM [falling, partial curve].
In the case of `Cc1cccnc1NC(=S)NCc1ccco1`, the activity change, negative = inhibition is reported as inconclusive: -0.302%.
In the case of `O=C(Nc1cccc2ccccc12)c1cc2c(cc1Br)OCO2`, the Potency is reported as active: 11.2 µM.
For `Cc1ccc(C(=O)N2CCN(S(=O)(=O)c3ccc(Br)cc3)CC2)o1`, the activity change, negative = inhibition was inconclusive: -1.68%.
With `COc1ccc(CNC(=O)CSc2nc(-c3ccccc3)cc(-c3cccs3)c2C#N)cc1` the activity change, negative = inhibition was inconclusive: 2.67%.
For `O=C(Nc1ccccc1O)c1ccc(Cl)cc1`, the Potency was inconclusive: 22.4 µM [falling, partial curve].
With `CCCCN(CCCNC(=O)C1CCN(C(=O)c2cc3sccc3n2C)CC1)Cc1ccccc1` the activity change, negative = inhibition was inconclusive: -14.8%.
For `c1ccc(Cn2ncc3c(Nc4ccccc4)ncnc32)cc1`, the activity change, negative = inhibition was inconclusive: 10.4%.
In the case of `O=C(O)C1CCN(c2nc(-c3ccccc3)nc3c2oc2ccccc23)CC1`, the activity change, negative = inhibition is reported as inconclusive: -16.7%.
For `COc1ccccc1S(=O)(=O)Nc1cccc(S(=O)(=O)N2CCCC2)c1`, the activity change, negative = inhibition was “inactive”.
In the case of `Cn1nc(-c2ccccc2)c(COC(=O)c2cccc(Cl)c2)c1S(=O)(=O)c1ccccc1`, the activity change, negative = inhibition is reported as inconclusive: 5.11%.
For `Cc1csc2nc(O)c(C(=O)NC3CCCCCC3)c(=O)n12`, the activity change, negative = inhibition was inconclusive: 5.38%.
With `CCS(=O)(=O)NCCCCc1ccccc1` the activity change, negative = inhibition was inconclusive: -0.889%.
In the case of `O=S(=O)(c1cccc(Cl)c1)N1CCN(S(=O)(=O)c2ccc3c(c2)OCCO3)CC1`, the activity change, negative = inhibition is reported as inconclusive: 2.63%.
For `Cc1ccc(S(=O)(=O)c2ncccc2N)cc1`, the activity change, negative = inhibition was inconclusive: 3.98%.
In the case of `S=c1[nH]nc(-c2ccccn2)n1/N=C/c1ccccc1`, the activity change, negative = inhibition is reported as “inactive”.
In the case of `Cn1c(-c2ccccc2)cc2c3no[n+]([O-])c3ccc21`, the activity change, negative = inhibition is reported as inconclusive: 11.4%.
For `CCOc1cccc2sc(N3CCN(C(=O)C(C)(C)C)CC3)nc12`, the activity change, negative = inhibition was inconclusive: 21.5%.
In the case of `CCOC(=O)C1CCN(S(=O)(=O)c2ccc(NC(=O)OC)cc2)CC1`, the activity change, negative = inhibition is reported as inconclusive: -6.14%.
With `CN(C)C(CNC(C(=O)Nc1ccc([N+](=O)[O-])cc1Br)c1ccccc1)c1ccccc1` (stereo not given) the activity change, negative = inhibition was inconclusive: -7.51%.
With `Cc1cccc(C)c1-n1nnnc1C(C)(C)N1CCN(N=O)CC1` the activity change, negative = inhibition was inconclusive: 21.1%.
In the case of `O=S(=O)(NCCC1CC1(Cl)Cl)c1ccc(Cl)cc1` (stereo not given), the activity change, negative = inhibition is reported as “inactive”.
For `O=C(O)CC1S/C(=N/N=C/C=C/c2ccccc2[N+](=O)[O-])NC1=O` (stereo not given), the activity change, negative = inhibition was “inactive”.
With `CCn1c(=O)cc(SCC(=O)NCCN2CCN(Cc3ccccc3)CC2)c2ccccc21` the activity change, negative = inhibition was “inactive”.
For `COc1cccc(C(=O)NC(=S)Nc2ccc([N+](=O)[O-])cc2C)c1`, the activity change, negative = inhibition was “inactive”.
In the case of `Cc1cc(OCC(=O)O/N=C(\N)c2ccccc2)ccc1Cl`, the activity change, negative = inhibition is reported as inconclusive: 1.53%.
In the case of `O=C(c1ccccc1)N1N=C(c2ccccc2)CC1c1ccccc1O` (stereo not given), the activity change, negative = inhibition is reported as inconclusive: -0.858%.
For `COc1ccc(NCc2nnc(SCC(=O)c3ccc(OC)cc3)n2C)cc1`, the activity change, negative = inhibition was “inactive”.
With `Cc1cccc(C(=O)NC(=S)N2CCN(C)CC2)c1` the activity change, negative = inhibition was inconclusive: 2.93%.
In the case of `O=C(c1cn(-c2ccccc2)nc1-c1cccc([N+](=O)[O-])c1)N1CCCCC1`, the activity change, negative = inhibition is reported as inconclusive: -0.057%.
With `O=C(Nc1nnc(S(=O)(=O)N2CCCCCC2)s1)c1ccccc1F` the Potency was inconclusive: 8.91 µM [rising, partial curve, poor fit].
For `CCOc1ccc(NC(=O)CN2CCN(CC(=O)Nc3ccccc3OC)CC2)cc1`, the Potency was inconclusive: 17.8 µM [falling, single point].
For `COc1cccc(NC(=O)CN(C)C(=O)c2ccc(S(=O)(=O)Nc3ccccc3C)cc2)c1`, the activity change, negative = inhibition was inconclusive: 2.54%.
For `Cc1ccccc1-n1c(=O)n(Cc2ccco2)c(=O)c2[nH]cnc21`, the activity change, negative = inhibition was inconclusive: 2.2%.
For `COC(=O)c1cccc(NC(=O)c2ccc3c(c2)C(=O)N(Cc2cccnc2)C3=O)c1C`, the activity change, negative = inhibition was inconclusive: -8.8%.
In the case of `COc1ccc(/C=C/C(=O)OCC(=O)Nc2cc3oc4ccccc4c3cc2OC)cc1`, the activity change, negative = inhibition is reported as “inactive”.
With `COc1ccc2c(c1)CCc1sc(NC(=O)c3ccc(C)cc3)nc1-2` the Potency was inconclusive: 17.8 µM [rising, partial curve, poor fit].
In the case of `COc1ccc(C2=C(Nc3ccc(C)cc3)c3ccccc3C2=O)cc1`, the activity change, negative = inhibition is reported as inconclusive: -0.466%.
For `COc1cccc(OC)c1C(=O)OCC(=O)N1CCC(Cc2ccccc2)CC1`, the activity change, negative = inhibition was inconclusive: 2.69%.
In the case of `CC(=O)Nc1cc2c3c(c1)CCC(=O)N3CCC2`, the activity change, negative = inhibition is reported as “inactive”.
With `Nc1ccccc1Nc1c(F)c(F)nc(F)c1Cl` the activity change, negative = inhibition was “inactive”.
In the case of `Nc1c(C(=O)Nc2nccs2)sc2nc(-c3cccs3)cc(C(F)(F)F)c12`, the activity change, negative = inhibition is reported as inconclusive: 20.4%.
With `Cc1ccc(CCNC(=O)c2nnn(-c3cccc(C)c3)c2N)cc1` the Potency was inconclusive: 25.9 µM [falling, partial curve, poor fit].
For `COc1ccc(C(=O)Nc2ccc(-c3ccc(NC(=O)c4ccc(OC)cc4)c(OC)c3)cc2OC)cc1`, the activity change, negative = inhibition was “inactive”.
In the case of `COc1cccc(C(=O)Nc2ccc(NC(=O)C3CCCCC3C(=O)O)cc2)c1` (stereo not given), the activity change, negative = inhibition is reported as inconclusive: -9.51%.
For `O=C(N/N=C\c1ccc(-c2ccc(Cl)c(Cl)c2)o1)C(=O)N1CCCC1`, the Potency was inconclusive: 35.5 µM [falling, single point].
For `Cc1ccc(-n2c(SCC(=O)OC(C)C)nnc2-c2ccncc2)cc1`, the Potency was inconclusive: 29.1 µM [falling, single point].
In the case of `Cc1sc2ncnc(SCc3ccc(C(=O)O)cc3)c2c1C`, the activity change, negative = inhibition is reported as “inactive”.
With `O=C(/C=C/c1cccs1)Nc1sc2c(c1C(=O)O)CCCC2` the Potency was inconclusive: 5.62 µM [rising, single point].
In the case of `O=C(N/N=C(\Cc1ncc[nH]1)c1ccccc1)c1cccnc1`, the Potency is reported as inconclusive: 11.2 µM [falling, partial curve, poor fit].
In the case of `CCCOc1ccc(C2c3c(oc4ccccc4c3=O)C(=O)N2CCCN2CCOCC2)cc1` (stereo not given), the activity change, negative = inhibition is reported as inconclusive: 17.4%.
For `CC(C(=O)Nc1ccccc1-c1ccccc1)N(C)Cc1nc2ccccc2c(=O)[nH]1` (stereo not given), the activity change, negative = inhibition was inconclusive: 4.4%.
For `NNc1nc(-c2ccccc2)c2ccccc2n1`, the activity change, negative = inhibition was inconclusive: 4.03%.
For `OCCC1CN(Cc2ccc3nonc3c2)CCN1Cc1ccsc1` (stereo not given), the activity change, negative = inhibition was “inactive”.
In the case of `O=C(CCCN1C(=O)S/C(=C\C=C\c2ccccc2)C1=O)Nc1ccc(C(=O)O)cc1`, the activity change, negative = inhibition is reported as inconclusive: 251%.
In the case of `O=C(Cc1ccc(Cl)cc1)Nc1cccc(C(=O)Nc2ccccc2C(=O)O)c1`, the Potency is reported as inconclusive: 25.1 µM [falling, single point].
In the case of `Cc1ccc(OCC(=O)NC2CCCC(C)C2C)c([N+](=O)[O-])n1` (stereo not given), the activity change, negative = inhibition is reported as inconclusive: -13.4%.
In the case of `CCc1c(C)nc2[nH]nc(-c3ccccc3C)n2c1=O`, the Potency is reported as inconclusive: 4.61 µM [falling, partial curve].
With `COc1cc(/C=N/NC(=O)c2ccc(F)cc2)ccc1OC(=O)c1ccco1` the activity change, negative = inhibition was inconclusive: -18.1%.
With `O=C(Nc1ncccc1O)c1cc2ccccc2o1` the Potency was inconclusive: 25.9 µM [cytotoxic, single point].
With `CCOC(=O)C1=C(COC(=O)/C=C/c2ccc([N+](=O)[O-])cc2)NC(=O)NC1C` (stereo not given) the activity change, negative = inhibition was inconclusive: 3.34%.
In the case of `c1ccc(-c2nnc(N3CCOCC3)c3ccccc23)cc1`, the Potency is reported as inconclusive: 12.6 µM [falling, partial curve, poor fit].
With `O=C(N/N=C/c1ccccc1Cl)c1n[nH]c2c1CCCC2` the Potency was inconclusive: 5.8 µM [falling, partial curve, poor fit].
For `Fc1ccc(N=C2NN=C(c3cc(F)ccc3F)CS2)cc1`, the Potency was inconclusive: 16.4 µM [falling, partial curve].
In the case of `C=C(C)Cn1c(SCC(=O)NCc2ccco2)nc2sc3c(c2c1=O)CCC3`, the activity change, negative = inhibition is reported as inconclusive: 2.19%.
For `CC1=C(C)CC(C(=O)NNC(=O)c2ccccc2)C(C(=O)O)C1` (stereo not given), the Potency was inconclusive: 31.6 µM [rising, single point].
With `Cc1ccc(S(=O)(=O)N2[C@@H](c3ccc(Br)cc3)C(C(=O)O)=CC[C@H]2c2ccc(Cl)c(Cl)c2)cc1` the activity change, negative = inhibition was “inactive”.
In the case of `Cc1ccc(CNc2nc3ccccc3s2)s1`, the Potency is reported as inconclusive: 29.1 µM [falling, single point].
For `COc1cc([N+](=O)[O-])ccc1NC(=O)Nc1nc2c(s1)CCCC2`, the activity change, negative = inhibition was inconclusive: 8.14%.
With `O=S(=O)(NCCOc1cccc2cccnc12)c1ccc(F)cc1` the activity change, negative = inhibition was inconclusive: 5.01%.
With `O=C(Nc1nc2cc3c(cc2s1)OCCO3)c1ccc([N+](=O)[O-])o1` the Potency was inconclusive: 6.31 µM [falling, partial curve].
With `COc1ccc(-c2cn3c(C)c(C(=O)N4CCc5ccccc5C4)sc3n2)cc1` the Potency was inconclusive: 20 µM [falling, partial curve, poor fit].
For `N#C/C(C(=O)c1ccccc1)=C1/SC=C(N)N1c1ccccc1`, the Potency was inconclusive: 25.1 µM [falling, single point].
With `CC(=O)N1CCN(C(=O)c2cccc(S(=O)(=O)Nc3ccc(C)cc3)c2)CC1` the activity change, negative = inhibition was inconclusive: -10.3% [cytotoxic].
For `Cc1ccc(S(=O)(=O)c2nc(S(C)(=O)=O)sc2N2CCC(O)CC2)cc1`, the activity change, negative = inhibition was inconclusive: 0.764%.
